Percent effect of library compounds

By UniProt entry, the sequences of proteins in these tests, tags left out. Residues count along the entry.
UniProt Q8IDJ8, 1-583: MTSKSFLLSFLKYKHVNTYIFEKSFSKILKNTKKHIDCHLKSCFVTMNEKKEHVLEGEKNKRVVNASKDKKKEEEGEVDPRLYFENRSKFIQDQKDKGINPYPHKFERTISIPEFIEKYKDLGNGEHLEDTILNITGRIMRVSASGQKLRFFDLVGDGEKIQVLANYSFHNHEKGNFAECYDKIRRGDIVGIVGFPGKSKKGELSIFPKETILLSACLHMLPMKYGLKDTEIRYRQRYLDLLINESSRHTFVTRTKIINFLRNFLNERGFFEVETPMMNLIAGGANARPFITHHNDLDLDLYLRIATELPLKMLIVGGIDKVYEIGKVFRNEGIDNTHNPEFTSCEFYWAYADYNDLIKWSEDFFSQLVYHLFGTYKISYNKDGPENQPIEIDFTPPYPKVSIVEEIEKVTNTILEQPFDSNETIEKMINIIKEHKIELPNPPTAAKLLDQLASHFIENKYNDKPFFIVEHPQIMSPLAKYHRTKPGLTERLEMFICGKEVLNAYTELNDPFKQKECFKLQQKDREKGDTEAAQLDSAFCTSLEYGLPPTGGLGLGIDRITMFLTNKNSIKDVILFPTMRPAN

The values are deposited in ChEMBL (CHEMBL3988442, “University of Dundee, Small-Polar-MMV Screening Library” (2021)).

The filed quantity is “Percent Effect” (%).
The controls that fix the scale are not given in the record; negative values are as filed.
The compounds are a random part of those screened.

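Enzyme assay of the cytosolic lysyl-tRNA synthetase in 384-well plates, read by luminescence. Target: Lysine-tRNA ligase, Plasmodium falciparum 3D7 (UniProt Q8IDJ8). Concentration: 30 µM. Direction is inferred from only a few compounds that gave an IC50; most scored high, so higher reads as stronger inhibition. Of about 69,000 compounds tested this way, about 49 (0.071%) reached 50% or more in at least one test.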

{"compound": "O=C(CCc1cccc(Cl)c1Cl)N1CCOCC1c1ncon1", "stereo": "centres undefined", "Percent Effect": 0.4218}
{"compound": "CCCS(=O)(=O)NC1CCN(c2nnc(C)c(C)c2C#N)CC1", "Percent Effect": 5.1}
{"compound": "CCC(C(=O)NCc1ccn(-c2ccc(F)cc2)n1)N1CCCC1=O", "stereo": "centres undefined", "Percent Effect": -9.489}
{"compound": "CCS(=O)(=O)N1Cc2ccccc2CC1C(=O)OCc1cc(C)no1", "stereo": "centres undefined", "Percent Effect": -5.541}
{"compound": "CCN1CCCC1CNCc1cc2cc(OC)ccc2[nH]c1=O", "stereo": "centres undefined", "Percent Effect": 0.8862}
{"compound": "C1CC(CN2C[C@@H]3C[C@@H](c4nnc(C5CC5)o4)O[C@@H]3C2)CCO1", "Percent Effect": 2.359}
{"compound": "Cn1cc(CN2CCCC23CCN(C(=O)c2ccncc2)CC3)cn1", "Percent Effect": -2.974}
{"compound": "O=C(c1ncccn1)N1CCC2(CC1)COC(COc1ccccn1)C2", "stereo": "centres undefined", "Percent Effect": 11.3}
{"compound": "Cc1nnc(C(C)N2CCCN(Cc3ccc(C#N)cc3)CC2)o1", "stereo": "centres undefined", "Percent Effect": 0.5107}
{"compound": "CN(C)Cc1cnn(-c2ccccc2C(=O)N(C)Cc2ccccc2)c1", "Percent Effect": 1.19}
{"compound": "CN1C(=O)C(c2ccccc2)CC12CCN(CCO)CC2", "stereo": "centres undefined", "Percent Effect": 6.605}
{"compound": "O=C(Nc1ccc(-c2cscn2)cc1)C1CCCN(Cc2ccon2)C1", "stereo": "centres undefined", "Percent Effect": 0.5326}
{"compound": "CCn1cc(C#N)c(=O)c2cc(Br)ccc21", "Percent Effect": 4.067}
{"compound": "O=C(CCS(=O)(=O)C1CCCC1)NCCc1ccc2c(c1)OCCO2", "Percent Effect": 6.894}
{"compound": "O=C(CC1CCCC1)NCCNCc1cccc2c1OCCO2", "Percent Effect": 12.56}
{"compound": "CN(C)C(=O)C(C)(C)c1ccc2c(c1)OCCO2", "Percent Effect": 0.323}
{"compound": "COc1ccccc1C(CNC(=O)NCc1cc[nH]n1)N1CCCC1", "stereo": "centres undefined", "Percent Effect": -1.279}
{"compound": "Cc1noc(C)c1CN1C(=O)[C@H]2CC[C@@H]1CN(Cc1ncc[nH]1)C2", "Percent Effect": 0.1714}
{"compound": "Cn1nc(COCC2CC2)c2c1CN(CC1CC1)CC2", "Percent Effect": 6.431}
{"compound": "CC(C)c1cnc(CN(C)C2CCN(CCc3ccncc3)C2)o1", "stereo": "centres undefined", "Percent Effect": -1.17}
{"compound": "CC(C)c1nc(-c2cc(C(=O)N3CCN(C)CC3)c3ccccn23)cs1", "Percent Effect": -3.783}
{"compound": "Cc1nn(C)c(C)c1CC(=O)NCc1ccnc(N2CCOCC2)c1", "Percent Effect": 0.8409}
{"compound": "Cc1nc(C)c(C(=O)N2CCc3c(C)cccc32)o1", "Percent Effect": 4.387}
{"compound": "COc1cccc2ccn(CC(=O)NCCC(C)C)c12", "Percent Effect": -0.3879}
{"compound": "COCCOc1ccnc(-c2noc([C@@H]3CCCN3CC(C)C)n2)c1", "Percent Effect": 3.859}
{"compound": "C=C1C(C)(C)[C@H]2CC[C@]1(C(=O)N1CCC(Cn3cc(CO)nn3)CC1)C2", "Percent Effect": -6.499}
{"compound": "CNc1ncc(-c2ccc(NC(=O)[C@@H]3CCCCN3)cc2)cn1", "Percent Effect": 3.522}
{"compound": "COc1cc(C(C)=O)ccc1OC12CCCN(CC1)C2", "stereo": "centres undefined", "Percent Effect": -3.409}
{"compound": "CN(C)Cc1nnc2n1CCN(c1cnccn1)CC2", "Percent Effect": 0.4406}
{"compound": "CC(NC(=O)N1CCCCCC1)c1ccc(S(N)(=O)=O)cc1", "stereo": "centres undefined", "Percent Effect": 8.257}
{"compound": "Cc1ccc(CN2CCC3(CC(=O)N(c4cccc(F)c4)C3)C2)o1", "stereo": "centres undefined", "Percent Effect": 1.55}
{"compound": "COCCC(=O)NCCc1nc(N(C)C)ncc1-c1ccncc1", "Percent Effect": 0.5125}
{"compound": "Cc1ccccc1Cc1cnc(NC(=O)C2CNC(=O)N2)s1", "stereo": "centres undefined", "Percent Effect": -0.0242}
{"compound": "Cc1noc(C)c1CN1CC[C@H]2[C@@H]1CCC(=O)N2CC1CCOCC1", "Percent Effect": 3.413}
{"compound": "CN(C)CCNC(=O)CC1CCN(c2cccnn2)CC1", "Percent Effect": -1.605}
{"compound": "Cc1nc2cc(C3CCOCC3)nn2c(NCC2COCCO2)c1C", "stereo": "centres undefined", "Percent Effect": -1.208}
{"compound": "CC(C)N(C)Cc1nnc2n1CCN(CC1CC1)CC2", "Percent Effect": 6.741}
{"compound": "COc1ccc(OCC(=O)NS(=O)(=O)c2cc(F)ccc2F)cc1", "Percent Effect": -0.3469}
{"compound": "COCCC1(CO)CCCN(Cc2ccc(C(F)(F)F)nc2)C1", "stereo": "centres undefined", "Percent Effect": 4.009}
{"compound": "Cc1cc(C)c(C#N)c(NCCn2cnnc2C(C)C)n1", "Percent Effect": -3.461}
{"compound": "CCOc1cccc(CNc2ccccc2C(=O)OC)c1O", "Percent Effect": 3.114}
{"compound": "CCc1nc(C(=O)N2CC(C)CN(C)c3ccccc32)c[nH]1", "stereo": "centres undefined", "Percent Effect": 4.154}
{"compound": "Cn1cc(C(=O)N2CCCC2c2ccc3c(c2)OCO3)ccc1=O", "stereo": "centres undefined", "Percent Effect": -1.879}
{"compound": "O=C(O)c1ccccc1-n1cc(CN2CCOC(c3cc[nH]n3)C2)cn1", "stereo": "centres undefined", "Percent Effect": 2.79}
{"compound": "Cc1cc2ccccc2n1CCC(=O)NCc1ncc[nH]1", "Percent Effect": 1.447}
{"compound": "Cn1cc(C(=O)Nc2cc(F)ccc2OCC2CCCO2)ccc1=O", "stereo": "centres undefined", "Percent Effect": 0.1383}

3 of the entries, repeated:

| compound | Percent Effect |
|---|---|
| `O=C(CCc1cccc(Cl)c1Cl)N1CCOCC1c1ncon1` (centres undefined) | 0.4218 |
| `Cc1cc2ccccc2n1CCC(=O)NCc1ncc[nH]1` | 1.447 |
| `CN(C)CCNC(=O)CC1CCN(c2cccnn2)CC1` | -1.605 |